From PubChem BioAssay AID1671190 (National Center for Advancing Translational Sciences (NCATS), 2021)
Where “and” joins values, the source holds several entries; their conditions need not be identical. Identical values can stand only once. The whole screen tested about 580,000 compounds, of which about 6,100 (1.1%) were called active. Inconclusive results, whose numbers are uncertain, are shown with a selection of clear calls. Calls follow the shape of the dose curve; as a rule, active = well fitted inhibition curve with a large enough effect; inconclusive = small, poorly fitted or top-dose-only effect, or another doubt; inactive = no such curve, though single readings can be large or run the other way. A potency beside an inconclusive call is a rough fit, not a confirmed value.

Protein sequences, listed by entry. Tags and fused reporters are not part of them.
UniProt P18054, whole entry, looked up: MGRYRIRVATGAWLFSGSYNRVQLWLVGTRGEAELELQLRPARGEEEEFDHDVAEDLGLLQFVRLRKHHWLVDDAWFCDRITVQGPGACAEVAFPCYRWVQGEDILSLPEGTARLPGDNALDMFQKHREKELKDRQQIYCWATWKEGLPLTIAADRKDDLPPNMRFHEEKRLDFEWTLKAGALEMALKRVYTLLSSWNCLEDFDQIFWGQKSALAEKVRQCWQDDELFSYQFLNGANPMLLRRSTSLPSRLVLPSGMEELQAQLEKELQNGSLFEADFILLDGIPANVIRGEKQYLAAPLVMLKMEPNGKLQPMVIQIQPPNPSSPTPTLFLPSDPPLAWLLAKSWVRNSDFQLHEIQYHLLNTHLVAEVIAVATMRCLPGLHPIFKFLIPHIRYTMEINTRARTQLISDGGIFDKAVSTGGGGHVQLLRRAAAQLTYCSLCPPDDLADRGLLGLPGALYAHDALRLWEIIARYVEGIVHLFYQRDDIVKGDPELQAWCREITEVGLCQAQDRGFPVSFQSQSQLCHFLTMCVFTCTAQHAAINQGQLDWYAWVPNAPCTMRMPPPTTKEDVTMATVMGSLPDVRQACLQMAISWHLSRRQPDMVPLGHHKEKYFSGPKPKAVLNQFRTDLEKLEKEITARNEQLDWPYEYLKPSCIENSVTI

What follows are molecules tested against Polyunsaturated fatty acid lipoxygenase ALOX12 (Homo sapiens) (UniProt P18054) (assay: Primary qHTS assay for inhibitors of human arachidonate 12S-lipoxygenase (ALOX12): Round 2). Settings: purified 12hLO, xylenol orange hydroperoxide absorbance; activity change, negative = inhibition: at 108 µM (top of the series) unless noted.
Outline: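 Purified human 12hLO at 150 nM in 25 mM Hepes, 0.01% Triton X-100, pH 7.0, preincubated 15 min at room temperature with compound. Reaction started with 40 uM arachidonic acid, 30 min at room temperature. Hydroperoxide measured by Fe-xylenol orange, 573/405 nm absorbance ratio.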
% is scaled to controls: 0 for no effect and ±100 for the full control effect; potency is read from the fitted curve at half-maximal effect.

Row | Structure (SMILES) | Potency | activity change, negative = inhibition
1 | Cc1nc(C)c(-c2csc(Nc3ccc(N(C)C)cc3)n2)s1 | inconclusive: 50.1 µM [inhibitor, partial curve, poor fit] | 
2 | COc1cccc(CNC(=O)Cc2ccc(-n3c(=O)[nH]c4ccccc4c3=O)cc2)c1 |  | inactive: -1.23%
3 | CC(C)Cc1nc(N2CCCCC2)c(C#N)c2c1CCC2 | inconclusive: 56.2 µM [inhibitor, partial curve, poor fit] | 
4 | N#Cc1ccc(C(=O)NCC2CCCCC2)cc1 |  | inactive: -4.5%
5 | O=C(O)CCCC(=O)NCCN1CCCC1 | inconclusive: 2.24 µM [inhibitor, full curve, poor fit] | 
6 | O=C(NNC(=O)c1ccccc1O)c1ccccc1O | inconclusive: 3.98 µM [inhibitor, full curve, poor fit] | 
7 | COc1ccc(/C=C/C=C2\NC(=S)NC2=O)cc1 | inconclusive: 79.4 µM [inhibitor, partial curve, poor fit] | 
8 | Cc1ccc(NC(=S)NC(=O)c2c(-c3ccccc3Cl)noc2C)cc1 | inconclusive: 56.2 µM [inhibitor, partial curve, poor fit] | 
9 | Fc1cccc(-c2nc(COc3ccccc3F)co2)c1 |  | inactive: 36.1%
10 | CCc1nnc(NC(=O)CSc2nc(-c3ccccc3)c(-c3ccccc3)o2)s1 |  | inactive: 5.18%
11 | Cc1cc(C(=O)O)c(C)[nH]1 | inconclusive: 35.5 µM [inhibitor, partial curve, poor fit] | 
12 | CCC(CC)COC(=O)C(C#N)c1nc2ccccc2nc1N1CCN(CC)CC1 (stereo unspecified) | inconclusive: 39.8 µM [inhibitor, partial curve, poor fit] | 
13 | CCc1cc2c3c(c1)C1(C(=O)N3C(C)(C)C=C2C)C(C#N)=C(N)Oc2[nH]c(=O)[nH]c(=O)c21 (stereo unspecified) |  | inactive: -0.0362%
14 | Cc1ccccc1OCc1nc(-c2ccc(NC(=O)c3ccc4c(c3)OCO4)cc2)no1 |  | inactive: 64.8%
15 | CC(C)c1nnc(N2C(=O)c3oc4ccccc4c(=O)c3C2c2ccco2)s1 (stereo unspecified) | inconclusive: 28.2 µM [inhibitor, partial curve, poor fit] | 
16 | CC1(Cc2ccccc2Cl)C(=O)Nc2c(Cl)cccc21 (stereo unspecified) | inconclusive: 100 µM [inhibitor, single point] | 
17 | CCOC(=O)c1c(COc2cccnc2[N+](=O)[O-])nc2ccccc2c1C | inconclusive: 141 µM [inhibitor, single point] | 
18 | Cc1ccc(NC(=O)CN2C(=O)COc3ccc(S(=O)(=O)N4CCCCC4)cc32)cc1N(C)C |  | inactive: -17.1%
19 | Cc1cccc(CNc2ncncc2-c2cccc(C#N)c2)c1 | inconclusive: 11.2 µM [inhibitor, full curve, poor fit] | 
20 | Cc1ccc(Cl)cc1S(=O)(=O)N1CCC(C(=O)NC2CCN(Cc3ccccc3)CC2)CC1 | inconclusive: 79.4 µM [inhibitor, partial curve, poor fit] | 
21 | CCOC(=O)[C@H]1[C@H]2COc3cc(OC)ccc3[C@@H]2N2C(=O)CN(Cc3ccc(C)cc3)C(=O)[C@@]12C | inconclusive: 39.8 µM [inhibitor, single point] | 
22 | CCc1ccc2oc(C(=O)Nc3ccc4nsnc4c3)cc(=O)c2c1 | inconclusive: 25.1 µM [inhibitor, partial curve, poor fit] | 

Row | Structure (SMILES) | Potency | activity change, negative = inhibition
23 | CN(C)CCN1CCN(C2CN(Cc3cn(Cc4ccc(Cl)cc4)nn3)S(=O)(=O)C2)CC1 (stereo unspecified) | inconclusive: 0.316 µM [inhibitor, full curve, poor fit] | 
24 | CCC(C)C(NC(=O)CCC(=O)OCC(=O)[C@@]1(O)CCC2[C@@H]3CCC4=CC(=O)C=C[C@]4(C)C3[C@@H](O)C[C@@]21C)C(=O)O (stereo partly specified) | inconclusive: 39.8 µM [inhibitor, single point] | 
25 | Cc1csc2nc(O)c(C(=O)NC3CCCCC3C)c(=O)n12 (stereo unspecified) |  | inactive: 6.24%
26 | COc1ccc(C(C)(NC(C)=O)c2nc(-c3ccc(F)c(Cl)c3)cs2)cc1 (stereo unspecified) | inconclusive: 50.1 µM [inhibitor, partial curve, poor fit] | 
27 | O=C1COc2ccc(Nc3ccccc3F)nc2CN1Cc1ccc(F)cc1 | inconclusive: 100 µM [inhibitor, partial curve, poor fit] | 
28 | Cc1c(Cl)cccc1-n1nc(C)c2c(C(=O)NCc3ccccc3)cc(C3CC3)nc21 |  | inactive: -18.1%
29 | Cc1nc2c(-c3ccccc3)c(C)nn2c(C)c1CCC(=O)NCc1ccc(F)cc1 |  | inactive: -24.9%
30 | COc1ccc(NC(=S)NC(=O)c2cncc(Br)c2)cc1 | inconclusive: 50.1 µM [inhibitor, partial curve, poor fit] | 
31 | Fc1ccc(Nc2cc3c(cn2)CN(Cc2ccccc2)CCN3)cc1 | inconclusive: 100 µM [inhibitor, partial curve, poor fit] | 
32 | CC[n+]1c(/C=C/c2ccc(OC)c(OC)c2)ccc2ccccc21 | active: 7.94 µM | 
33 | CC(Oc1ccc(Br)cc1Cl)C(=O)NC1(C#N)CCCCC1 (stereo unspecified) |  | inactive: -27%
34 | O=C(NC1CCCCC1)c1ccc2c3c(cccc13)CC2 | inconclusive: 100 µM [inhibitor, single point] | 
35 | O=C(c1nn2c(C(F)(F)F)cc(-c3ccco3)nc2c1Br)N1CCCc2ccccc21 | inconclusive: 0.708 µM [inhibitor, full curve, poor fit] | 
36 | CCOc1cccc(CNn2cnnc2)c1OCc1ccccc1Cl |  | inactive: -7.38%
37 | COCCN(C(=O)COC(=O)/C=C/c1ccc(Cl)c(Cl)c1)c1c(N)n(Cc2ccccc2)c(=O)[nH]c1=O | inconclusive: 44.7 µM [inhibitor, partial curve, poor fit] | 
38 | COc1ccc2oc(=O)c(-c3csc(Nc4ccc(O)cc4)n3)cc2c1 | inconclusive: 79.4 µM [inhibitor, partial curve, poor fit] | 
39 | S=C(NCCN1CCOCC1)N1CCN(c2cccc(Cl)c2)CC1 | active: 5.62 µM | 
40 | O=C(NCc1ccccc1F)c1ccc(-c2ccc(N3CCSCC3)nc2)cc1 | inconclusive: 89.1 µM [inhibitor, single point] | 
41 | COC(=O)c1cc(Br)c(=O)n(CCN2CCCC2)c1 |  | inactive: 0%
42 | Cc1cccc(NC(=O)COC(=O)c2n[nH]c(=O)c3ccccc23)c1 |  | inconclusive: -39.8% [inhibitor]
43 | CCOC(=O)CNS(=O)(=O)c1ccc(C(=O)O)cc1 |  | inactive: -17.2%
44 | CC(C)Sc1nc2c(c(=O)[nH]c(=O)n2C)n1CC(O)COc1ccccc1 (stereo unspecified) |  | inactive: -13.1%

Row | Structure (SMILES) | Potency | activity change, negative = inhibition
45 | Cn1c(=O)oc2cc(S(=O)(=O)Nc3ccccc3O)ccc21 | inconclusive: 126 µM [inhibitor, single point] and inconclusive: 22.4 µM [inhibitor, single point] | 
46 | CCc1nc(C)ccc1OCC(=O)NCCCN(C)C | inconclusive: 0.282 µM [inhibitor, full curve, poor fit] | 
47 | Cc1onc(-c2c(F)cccc2Cl)c1C(=O)N1CCN(c2ncc(Br)cn2)CC1 |  | inactive: 0%
48 | CCOC(=O)C(=NC(C)(C)C)NNc1cc(Cl)ccc1Cl |  | inactive: -13.5%
49 | C[C@H](CO)N1C[C@H](C)[C@@H](CN(C)C(=O)Cc2cccnc2)Oc2ncc(C#CCc3ccccc3)cc2C1=O | inconclusive: 141 µM [inhibitor, partial curve, poor fit] | 
50 | CCCNC(=O)C(C)OC(=O)c1ccc2[nH]c(C)c(C)c2c1 (stereo unspecified) |  | inactive: -8.21%
51 | O=C1CCC(C(=O)Nc2ccc(Cl)c(Cl)c2)N1 (stereo unspecified) | inconclusive: 100 µM [inhibitor, single point] | 
52 | O=S(=O)(Cc1ccc(F)cc1Cl)c1ccc2ccccc2c1 | inconclusive: 50.1 µM [inhibitor, partial curve, poor fit] | 
53 | Cc1ccc(C(=O)Nc2nc(=O)n(C)s2)cc1 |  | inactive: -1.33%
54 | Nc1nc(=S)c2ncn([C@@H]3O[C@H](CO)[C@@H](O)[C@H]3O)c2[nH]1 | inconclusive: 4.47 µM [inhibitor, full curve, poor fit] and inconclusive: 20 µM [inhibitor, partial curve, poor fit] | 
55 | CCCCNC(=O)C(c1ccc(OCC(=O)OC)c(C(=O)OC)c1)N(CCOC)C(=O)CCCCCN1C(=O)NC(c2ccc(-c3ccccc3)cc2)C(C(=O)OCc2ccccc2)=C1C (stereo unspecified) | inconclusive: 4.47 µM [inhibitor, full curve, poor fit] | 
56 | O=C1NC2(CCN(C(=O)c3ccccc3)C2)N=C1c1cccnc1 (stereo unspecified) |  | inactive: 8% [at 176 µM]
57 | Cc1onc(-c2c(F)cccc2Cl)c1C(=O)ONC(=O)c1ccccc1 | inconclusive: 6.31 µM [inhibitor, full curve, poor fit] | 
58 | O=C(NCc1cccnc1)c1ccc2c(c1)N(Cc1ccccc1)CCS2 | inconclusive: 35.5 µM [inhibitor, partial curve, poor fit] | 
59 | CC(=O)Nc1cc(-c2ccccc2Cl)cn2c(-c3ccc(S(C)(=O)=O)cc3)cnc12 |  | inactive: -14.1%
60 | CCC(C)(C)n1nnnc1C(C(C)C)N(CCN1CCOCC1)Cc1cc2cccc(C)c2[nH]c1=O (stereo unspecified) | inconclusive: 3.98 µM [inhibitor, full curve, poor fit] | 
61 | CCn1c(CCNC(=O)c2ccc(F)cc2)nc2ccccc21 |  | inactive: -14.6%
62 | Cc1occc1C(=O)NNS(=O)(=O)c1ccc([N+](=O)[O-])cc1 | inconclusive: 56.2 µM [inhibitor, partial curve, poor fit] | 
63 | Cc1ccc(S(=O)(=O)c2c(N)n(-c3ccccc3)c3nc4ccccc4nc23)cc1 | inconclusive: 28.2 µM [inhibitor, partial curve, poor fit] | 
64 | CCc1ccc2nc3nc(C)cc(C)c3c(N)c2c1 |  | inactive: 0.344%
65 | O=C(CC1CCOCC1)Nc1ccc(Cl)c(Cl)c1 | inconclusive: 50.1 µM [inhibitor, partial curve, poor fit] | 
66 | O=C(COC(=O)c1nn(-c2ccccc2)c(=O)c2ccccc12)Nc1ccccc1Cl |  | inactive: 2.14%
